Source: PubChem BioAssay AID316 (DTP/NCI, 2004)
The list is a part of this screen's results and no random one: it gathers tests that were run many times, whatever their T/C, doses with no T/C, and many T/C values between a quarter and a half above the control. Further doses and runs are listed elsewhere. T/C gives the treated animals as a percentage of the vehicle group. Some doses have a count of surviving animals in place of a T/C: the source files T/C as zero there, which appears to mark a toxic dose or a test without result, not a measured value. Some doses without a T/C left all or most animals alive at the check, yet need not have been tolerated: the source hardly ever lists a survival T/C far under the control, and the zero likely stands for such cases as well. Survivors were counted at the toxicity check, usually on the fifth day, unless a day is given; later deaths do not show. Schedule codes are those of the source, read here as Q, the interval in days (D) or hours (H), X, the number of doses. Some doses were run more than once; the results are listed from low to high. For survival time, this PubChem deposit counts one and a half times the control or more as active, and values a quarter to a half above the control carry no call in these data; other NCI protocols may use other cut-offs. Additions like (4×) stand for listed records that agree. Some T/C values are followed by the survivors on the day toxicity was checked, most often the fifth; where none is given, no animal had died by that day. Some schedule codes hold Z or #, which are not explained here.

Test system: P1534 leukemia ip, CD2F1 mice, survival T/C
Assay: NCI In Vivo Anticancer Drug Screen. Data for tumor model P1534 Leukemia (intraperitoneal) in CD2F1 (CDF1) mice
Conditions: T/C endpoint: mean survival time, higher T/C = longer survival
Method: The antitumor activity of compounds was measured in mice bearing transplantable tumors. Survival or tumor size were measured and the results are expressed as the measurement made in the treated group (T) divided by the measurement made in the vehicle treated control group (C). The tumor model used in this assay is P1534 Leukemia (intraperitoneal) in CD2F1 (CDF1) mice

[1] = dose: 6.0 mg/kg/injection, schedule: Q01DX010 (ip), vehicle: saline
[2] = dose: 6.25 mg/kg/injection, schedule: Q01DX010 (ip), vehicle: water
[3] = dose: 20.0 mg/kg/injection, schedule: Q01DX010 (ip), vehicle: saline
[4] = dose: 40.0 mg/kg/injection, schedule: Q01DX010 (ip), vehicle: saline
[5] = dose: 300.0 mg/kg/injection, schedule: Q01DX010 (ip), vehicle: saline
[6] = dose: 150.0 mg/kg/injection, schedule: Q01DX005 (sc), vehicle: steroid suspending solution
[7] = dose: 300.0 mg/kg/injection, schedule: Q01DX005 (sc), vehicle: steroid suspending solution

S=P(N1CC1)(N1CC1)N1CC1
T/C (dose: 0.75 mg/kg/injection, schedule: Q01DX010 (ip), vehicle: saline): 100 (2×), 110, 113 % of control | T/C (dose: 1.5 mg/kg/injection, schedule: Q01DX010 (ip), vehicle: saline): 104, 109, 117, 127 % of control | T/C (dose: 1.57 mg/kg/injection, schedule: Q01DX010 (ip), vehicle: water): 108, 109, 113, 116 % of control | T/C (dose: 3.0 mg/kg/injection, schedule: Q01DX010 (ip), vehicle: saline): 109 (2×), 134, 144 % of control | T/C (dose: 3.13 mg/kg/injection, schedule: Q01DX010 (ip), vehicle: water): 88, 106, 120 % of control (2×) | T/C [1]: 104 and 109 % of control | survivor count [1]: 5 of 6 and 6 of 6 | T/C [2]: 89 % of control | survivor count [2]: 6 of 6 | survivor count (dose: 12.5 mg/kg/injection, schedule: Q01DX010 (ip), vehicle: water): 6 of 6 | survivor count (dose: 25.0 mg/kg/injection, schedule: Q01DX010 (ip), vehicle: water): 2 of 6, 4 of 6, 6 of 6

O=[n+]1c2c(n([O-])c3ccccc31)-c1cccc3cccc-2c13
survivor count (dose: 200.0 mg/kg/injection, schedule: Q01DX010 (ip), vehicle: saline): 5 of 6

CO[C@@H]1[C@@H](OC2OC(C)C(OC3CC(C)(O)C(OC(=O)CC(C)C)C(C)O3)C(N(C)C)C2O)[C@@H](CC=O)C[C@@H](C)C(=O)/C=C/C2O[C@H]2C[C@@H](C)OC(=O)C[C@H]1OC(C)=O (stereo not given in full)
T/C (dose: 150.0 mg/kg/injection, schedule: Q#A X020 (ip), vehicle: water): 130 % of control [4 of 6 alive] | T/C (dose: 300.0 mg/kg/injection, schedule: Q01DX010 (ip), vehicle: water): 143 % of control [5 of 6 alive] | T/C (dose: 350.0 mg/kg/injection, schedule: Q01DX010 (ip), vehicle: water): 125 % of control | survivor count (dose: 400.0 mg/kg/injection, schedule: Q01DX010 (ip), vehicle: water): 1 of 6 | survivor count (dose: 600.0 mg/kg/injection, schedule: Q01DX010 (ip), vehicle: water): 0 of 6 | survivor count (dose: 1500.0 mg/kg/injection, schedule: Q01DX010 (oral), vehicle: water): 1 of 6

NCCCCCCNCCCCCCN
survivor count (dose: 25.0 mg/kg/injection, schedule: Q01DX010 (ip), vehicle: saline): 6 of 6 | survivor count (dose: 50.0 mg/kg/injection, schedule: Q01DX010 (ip), vehicle: saline): 0 of 6 | survivor count (dose: 100.0 mg/kg/injection, schedule: Q01DX010 (ip), vehicle: saline): 0 of 6

COC(=O)C1=COC(C)C2CN3CCc4c([nH]c5ccccc45)C3CC12 (stereo not given)
survivor count (dose: 160.0 mg/kg/injection, schedule: Q01DX010 (ip), vehicle: saline): 6 of 6

C[C@@H]1C[C@@H]([C@H](O)CC2CC(=O)NC(=O)C2)C(=O)[C@@H](C)C1
T/C [3]: 125 % of control | T/C [4]: 125 % of control

OCCOCCN1CCN(CCCN2c3ccccc3Sc3ccc(C(F)(F)F)cc32)CC1
survivor count (dose: 10.0 mg/kg/injection, schedule: Q01DX010 (ip), vehicle: saline): 5 of 6 | survivor count [3]: 6 of 6 | survivor count [4]: 5 of 6 | survivor count (dose: 80.0 mg/kg/injection, schedule: Q01DX010 (ip), vehicle: saline): 0 of 6

COC(=O)C1=COC(C)C2CN3CCc4c([nH]c5cc(OC)c(OC)cc45)C3CC12 (stereo not given)
survivor count [5]: 6 of 6

C[C@]12CCC(=O)C=C1CC[C@@H]1[C@@H]2[C@@H](O)C[C@@]2(C)[C@H]1CC[C@]2(O)C(=O)CO
survivor count (dose: 100.0 mg/kg/injection, schedule: Q01DX005 (sc), vehicle: steroid suspending solution): 10 of 10 | T/C [6]: 92 % of control | survivor count [6]: 4 of 10, 5 of 10, 6 of 10, 9 of 10, 10 of 10 | survivor count (dose: 200.0 mg/kg/injection, schedule: Q01DX005 (sc), vehicle: steroid suspending solution): 10 of 10 | survivor count (dose: 250.0 mg/kg/injection, schedule: Q01DX005 (sc), vehicle: steroid suspending solution): 10 of 10 | T/C [7]: 86 % of control | survivor count [7]: 0 of 10, 3 of 10, 6 of 10, 10 of 10

COc1cc(C[C@H]2c3cc(OC)c(OC)cc3CCN2C)c(Oc2cc3c(cc2OC)-c2c(OC)c(OC)cc4c2[C@H](C3)N(C)CC4)cc1OC
survivor count (dose: 6.25 mg/kg/injection, schedule: Q01DX010 (ip), vehicle: saline): 6 of 6 | survivor count (dose: 12.5 mg/kg/injection, schedule: Q01DX010 (ip), vehicle: saline): 6 of 6

CNC(C)C(O)c1ccccc1 (stereo not given)
survivor count (dose: 150.0 mg/kg/injection, schedule: Q01DX010 (ip), vehicle: saline): 5 of 6 | survivor count [5]: 0 of 6
